Measurements taken from PubChem BioAssay AID540275 (National Center for Advancing Translational Sciences (NCATS), 2011).
Screen size: about 320,000 compounds; about 620 (0.19%) were called active. Inconclusive results, whose numbers are uncertain, are shown with a selection of clear calls. Rule as the data show it: active = activation above about 80%; inconclusive = between about 30% and that limit; inactive = weaker than that.

Sequences of proteins named here, by UniProt entry; tags and fusion partners are left off.
UniProt Q8NER1, whole entry, looked up: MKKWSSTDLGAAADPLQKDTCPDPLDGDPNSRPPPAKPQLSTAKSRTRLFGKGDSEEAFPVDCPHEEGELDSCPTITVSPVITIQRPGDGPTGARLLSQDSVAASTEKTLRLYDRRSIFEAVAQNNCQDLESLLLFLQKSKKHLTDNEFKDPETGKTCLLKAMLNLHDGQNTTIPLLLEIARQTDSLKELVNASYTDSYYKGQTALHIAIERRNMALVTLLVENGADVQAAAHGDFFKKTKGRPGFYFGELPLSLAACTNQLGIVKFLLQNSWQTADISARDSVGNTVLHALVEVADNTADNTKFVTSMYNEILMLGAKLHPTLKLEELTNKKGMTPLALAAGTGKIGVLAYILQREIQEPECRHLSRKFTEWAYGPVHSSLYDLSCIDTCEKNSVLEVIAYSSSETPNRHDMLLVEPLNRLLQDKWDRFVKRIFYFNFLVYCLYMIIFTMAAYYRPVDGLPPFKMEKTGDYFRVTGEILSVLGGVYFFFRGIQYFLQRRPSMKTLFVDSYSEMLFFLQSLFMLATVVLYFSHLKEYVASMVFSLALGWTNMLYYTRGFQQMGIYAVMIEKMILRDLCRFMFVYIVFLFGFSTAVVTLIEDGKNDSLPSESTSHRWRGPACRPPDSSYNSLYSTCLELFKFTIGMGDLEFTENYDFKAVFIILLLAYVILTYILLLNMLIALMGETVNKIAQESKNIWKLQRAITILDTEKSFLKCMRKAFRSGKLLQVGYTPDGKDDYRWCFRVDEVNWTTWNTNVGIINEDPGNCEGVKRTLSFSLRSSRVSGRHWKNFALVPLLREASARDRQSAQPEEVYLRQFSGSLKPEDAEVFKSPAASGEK

Target: Transient receptor potential cation channel subfamily V member 1 (Homo sapiens) (UniProt Q8NER1)
Assay: HTS Assay for Compounds that Act as Agonists of the Vanilloid Receptor 1; also: 0% is about no effect
Settings: TRPV1-expressing cells, Fluo-8 calcium influx, agonist mode; at 8.33 µM, active compounds read high
How it was run: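 Fluo-8 calcium influx in TRPV1-expressing cells, kinetic read (ex 480/em 520 nm). Compound added and read 3 min for agonist activity, followed by capsaicin at EC20 final and 2 min further read for enhancement.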

| Structure (SMILES) | activation |
| --- | --- |
| COc1cc(NC(=O)c2ccco2)c(C(=O)OCC(=O)c2c[nH]c3ccccc23)cc1OC | inactive: -0.815% |
| O=C(CCCc1c[nH]c2ccccc12)NCc1cccs1 | inconclusive: 47.7% |
| Cc1cc2oc(C(=O)Nc3ccc(S(N)(=O)=O)cc3)c(C)c2cc1Cl | inconclusive: 68.3% |
| CCSc1ccc(-c2ccc(C)cc2)nn1 | inconclusive: 31% |
| O=C1N/C(=N\N=C\c2cccs2)SC1Cc1ccc(Cl)cc1Cl (configuration not stated) | inactive: 0.354% |
| Cn1c(N2CCCC2)nc2c1c(=O)n(Cc1ccc(F)cc1)c(=O)n2C | inconclusive: 37.8% |
| CC(NC(=O)c1ccco1)C(=O)OCC(=O)c1ccc(Cl)s1 (configuration not stated) | inactive: -2.05% |
| COc1ccccc1CCC(=O)Oc1ccc(C#N)cc1OC | inactive: 4.4% |
| Cc1cccc(NC(=O)CN(C2=NC3CS(=O)(=O)CC3S2)c2ccccc2F)c1 (configuration not stated) | inactive: 2.47% |
| O=S1(=O)N=C(Nc2ccc(N3CCOCC3)cc2)c2ccccc21 | inactive: 3.58% |
| COc1ccccc1CNS(=O)(=O)c1cc(-c2cc(C)no2)ccc1C(C)C | inconclusive: 51.2% |
| COc1cccc(C(=O)C2CCCN(Cc3ccc(OC)c(Cn4cncn4)c3)C2)c1 (configuration not stated) | inactive: 2.31% |
| C=CCOC(=O)/C(=C/c1cccc2ccccc12)NC(=O)c1ccccc1 | inconclusive: 37.4% |
| CC1CCN(C(=O)CSc2nc3ccccc3s2)CC1 | inconclusive: 45.8% |
| CC(=O)c1ccc(N2CCN(C(=S)Nc3cccc(Cl)c3)CC2)cc1 | inconclusive: 34.9% |
| CC(=O)c1ccc(NS(=O)(=O)c2ccc(CC(C)C)cc2)cc1 | inactive: -11.1% |
| Cc1ccc(C)c(NC(=O)c2cc(=O)c3ccccc3o2)c1 | inconclusive: 51.4% |
| CC(C)c1nnc(NC(=O)c2ccc3ccccc3c2)s1 | inconclusive: 58.5% |
| COc1ccc(C)cc1NC(=O)CNC(c1ccccc1)c1ccc(C)cc1 (configuration not stated) | inconclusive: 31.9% |

| Structure (SMILES) | activation |
| --- | --- |
| CC(=O)c1cccc(NC(=O)COc2nsnc2N2CCOCC2)c1 | inactive: 4.91% |
| Cc1[nH]n(-c2ccccc2)c(=O)c1/C=N/NC(=O)c1ccccc1F | inactive: 24.4% |
| CC1CCc2nc(/C(C#N)=C/c3cccnc3)sc2C1 (configuration not stated) | inconclusive: 48.6% |
| COc1ccc2c(c1)-c1nc(/N=C/c3ccc(O)cc3)sc1CC2 | inactive: -6.32% |
| CN(c1cccc(NC(=O)CCSc2ccccc2)c1)S(C)(=O)=O | inconclusive: 33.8% |
| CCOC(=O)C1CCN(C(=O)c2sc3nc(C)nc(N4CCC(C)CC4)c3c2C)CC1 | inactive: 5.76% |
| CN1CCN(C(=S)NCCc2ccccc2)CC1 | inconclusive: 36.4% |
| Cc1ccc(Nc2nc(N/N=C\c3ccc4c(c3)OCO4)nc(N3CCOCC3)n2)cc1 | inconclusive: 51.4% |
| N#Cc1ccc(C(=O)Nc2cccc3ccccc23)c(F)c1 | inconclusive: 50.8% |
| O=C(CN(c1ccc2c(c1)OCCO2)S(=O)(=O)c1ccccc1)N1CCN(Cc2ccccc2)CC1 | inactive: 0.157% |
| COc1c(C(=O)Nc2nnc(C3CC3)s2)csc1Cl | inconclusive: 45.7% |
| O=C(c1cc(-c2ccc(F)cc2)nc2ccccc12)N1CCN(C2CCS(=O)(=O)C2)CC1 (configuration not stated) | inactive: -0.549% |
| CC1CCCC(NC(=O)COC(=O)c2cc(S(=O)(=O)N3CCOCC3)ccc2F)C1C (configuration not stated) | inactive: 5.91% |
| Nc1nc(COc2ccc(Cl)cc2)cs1 | inactive: 0.922% |
| Cc1ccc2nc(-c3ccc(Br)cc3)cn2c1 | inconclusive: 41.7% |
| Cc1cccc(NC(=O)NCCc2ccc(Cl)cc2)c1 | inactive: 7.77% |
| CCOC(=O)c1ccc(-c2ccc(/C=C(\C#N)C(=O)NCc3cccs3)o2)cc1 | inactive: -1.84% |
| CC(C)OP(=O)(c1ccc(N(C)C)cc1)C(O)c1ccc(Br)cc1 (configuration not stated) | inactive: -1.72% |
| CCN1CCN(C(=O)c2sc3ncnc(N4CCc5ccccc5C4)c3c2C)CC1 | inconclusive: 30.9% |

Three entries out of the list, sorted by number of heavy atoms, ascending:

| Structure (SMILES) | activation |
| --- | --- |
| Nc1nc(COc2ccc(Cl)cc2)cs1 | inactive: 0.922% |
| COc1c(C(=O)Nc2nnc(C3CC3)s2)csc1Cl | inconclusive: 45.7% |
| O=C(c1cc(-c2ccc(F)cc2)nc2ccccc12)N1CCN(C2CCS(=O)(=O)C2)CC1 (configuration not stated) | inactive: -0.549% |

Continued.

| Structure (SMILES) | activation |
| --- | --- |
| Cc1nc(NC(C)C)c2oc3ccccc3c2n1 | inconclusive: 42% |
| CC(=O)c1ccc(-c2ccc(C(=O)N3CCN(c4ccc(F)cc4)CC3)o2)cc1 | inactive: 9.89% |
| CCNC(=O)c1cnn(-c2ccccc2)c1-c1ccccc1 | inconclusive: 32.6% |
| COc1cc(Cl)ccc1OCc1cc(C(=O)N2C[C@H]3CC[C@H]2C3)no1 | inactive: 8.88% |
| C=CCNc1nc2c(c(=O)n(C)c(=O)n2C)n1CCCCCC | inactive: 4.4% |
| Cc1nn(Cc2ccccc2)c(Cl)c1C(=O)NCCc1ccc(Cl)cc1 | inconclusive: 44.4% |
| O=C(/C=C\Nc1ccc(Br)cc1)c1cccnc1 | inconclusive: 47.7% |
| Cc1cc(OCC(=O)Nc2cccnc2)c2c(C)c(C)c(=O)oc2c1 | inactive: 28.5% |
| Cc1cccc([C@@H]2[C@@H]3C(=O)N(Cc4ccccc4)C(=O)[C@@H]3[C@]3(C)C(=O)N(c4cccc(Cl)c4)C(=O)N23)c1 | inactive: 2.38% |
| CC(=O)c1cc(-c2ccccc2)n(CCC(=O)NC2CCCCC2)c1C | inconclusive: 61.1% |
| CCOc1ccccc1N(CC(=O)NC1CCCC1)S(=O)(=O)c1ccc(C)cc1 | inconclusive: 37.5% |
| Cc1cccc(C(=O)NCCCNC(=O)c2ccco2)c1 | inactive: 2.25% |
| O=C(Nc1nc2ccccc2s1)c1ccc(Cl)s1 | inconclusive: 74.7% |
| CCC(Oc1ccccc1)C(=O)Nc1ccc(S(=O)(=O)N2CCOCC2)cc1 (configuration not stated) | inconclusive: 40.3% |
| Cc1cc(C)c2sc(N(CCCN(C)C)C(=O)c3ccc(S(=O)(=O)N4CCCc5ccccc54)cc3)nc2c1 | inconclusive: 35.5% |
| Cc1cc(C)c2c(=O)n(CC(=O)Nc3cccc(Cl)c3C)sc2n1 | inconclusive: 44.4% |
| COc1ccc(/C(O)=C/c2nc3ccccc3n(-c3ccccc3)c2=O)cc1 | inactive: 0.577% |
| COc1cc(/C=C2\SC(=Nc3ccc(Cl)c(C(=O)O)c3)NC2=O)c(Br)c(Br)c1O | inconclusive: 74.7% |
| CC1(C)CC(=O)C2=C(C1)N=C1SCCC(=O)N1C2c1ccc(C(F)(F)F)cc1 (configuration not stated) | inconclusive: 36.8% |
